Test results as given in publication PMC5333915.

Target: T1, Suppressor of Gene Silencing 3 from Nicotiana benthamiana (NbSGS3), BiFC fusion (Nicotiana benthamiana) (UniProt X4YFK1)
T1 sequence: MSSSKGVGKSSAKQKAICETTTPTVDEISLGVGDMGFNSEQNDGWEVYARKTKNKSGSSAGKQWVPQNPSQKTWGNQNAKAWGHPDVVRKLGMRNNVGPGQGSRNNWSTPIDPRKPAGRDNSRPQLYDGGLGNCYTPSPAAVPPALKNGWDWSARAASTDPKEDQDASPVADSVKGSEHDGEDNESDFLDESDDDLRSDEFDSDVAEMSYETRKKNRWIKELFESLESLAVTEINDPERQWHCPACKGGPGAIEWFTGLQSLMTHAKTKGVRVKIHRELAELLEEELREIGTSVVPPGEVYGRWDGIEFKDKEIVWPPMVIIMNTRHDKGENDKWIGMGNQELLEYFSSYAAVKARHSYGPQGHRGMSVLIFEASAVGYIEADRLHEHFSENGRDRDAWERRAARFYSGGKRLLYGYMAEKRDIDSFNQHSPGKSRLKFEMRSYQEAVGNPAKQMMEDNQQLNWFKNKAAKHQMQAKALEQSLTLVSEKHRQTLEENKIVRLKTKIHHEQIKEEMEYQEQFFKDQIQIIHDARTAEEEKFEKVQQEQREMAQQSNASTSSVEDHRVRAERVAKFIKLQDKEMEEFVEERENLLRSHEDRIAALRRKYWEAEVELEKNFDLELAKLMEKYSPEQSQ
Test: split reporter; BiFC with 2YN and 2YC fragments of YFP, agroinfiltrated leaves of H2B-RFP transgenic N. benthamiana, confocal microscopy at 48 hpi

“movement protein P3N-PIPO from Turnip mosaic virus (TuMV), BiFC fusion” was tested, and the binding was “no binding”.

These are yes or no findings as the source states them, for the method shown. In cells and extracts the contact can be indirect. Where a sequence is shown, tags or fusion partners need not be part of it.
